This note sets out measurements from US20210386709A1, “COMPOSITIONS AND METHODS FOR SUPPRESSING MSUT2” (United States Government As Represented By The Department …, priority 2020, published 2021).

The target in this data set is T1, MSUT2 ZF (ZC3H14 C-terminal CCCH zinc finger domain) (UniProt Q6PJT7).
T1 sequence (looked up): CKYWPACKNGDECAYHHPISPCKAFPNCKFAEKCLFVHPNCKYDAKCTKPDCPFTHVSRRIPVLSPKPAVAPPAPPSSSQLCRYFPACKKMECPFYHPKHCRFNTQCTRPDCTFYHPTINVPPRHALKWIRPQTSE
Nature of the data set: binding assay. Conditions: [none]; CITED Wheeler 2019; method not stated; purified recombinant protein; protein details: GST (pGEX-6P1); letters built from the parent sequence and the stated change.

For at least one entry, the source does not settle the construct or the ends of the probe. Protein sequences can lack the tags named with them.

As usually defined, the Kd is the free concentration of one partner at which half of the binding sites on the other are occupied at equilibrium, for simple one-to-one binding.

As to AAAAAAAAAAAAAAA [poly(A) RNA], the Kd came to 60 nM.
